The results in this text go back to paper PMC6692068.

Chains of the proteins cited; added tags and fusions are not shown.
UniProt P0DMV8: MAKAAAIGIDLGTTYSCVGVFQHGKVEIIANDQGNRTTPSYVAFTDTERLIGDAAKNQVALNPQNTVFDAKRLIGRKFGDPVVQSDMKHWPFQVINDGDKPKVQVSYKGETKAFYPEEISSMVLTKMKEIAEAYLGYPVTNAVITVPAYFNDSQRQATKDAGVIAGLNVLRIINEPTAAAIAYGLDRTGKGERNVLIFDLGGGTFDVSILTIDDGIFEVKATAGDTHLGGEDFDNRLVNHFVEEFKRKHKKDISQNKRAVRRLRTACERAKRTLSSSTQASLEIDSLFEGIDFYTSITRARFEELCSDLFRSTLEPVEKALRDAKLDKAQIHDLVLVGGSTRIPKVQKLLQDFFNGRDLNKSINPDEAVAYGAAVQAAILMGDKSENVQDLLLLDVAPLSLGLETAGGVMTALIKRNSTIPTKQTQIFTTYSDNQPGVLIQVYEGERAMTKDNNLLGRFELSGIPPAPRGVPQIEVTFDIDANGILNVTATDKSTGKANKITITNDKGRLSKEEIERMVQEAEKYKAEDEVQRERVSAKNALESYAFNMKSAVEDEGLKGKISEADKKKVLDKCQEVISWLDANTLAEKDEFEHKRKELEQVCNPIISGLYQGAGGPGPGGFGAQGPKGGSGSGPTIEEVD
UniProt P13569: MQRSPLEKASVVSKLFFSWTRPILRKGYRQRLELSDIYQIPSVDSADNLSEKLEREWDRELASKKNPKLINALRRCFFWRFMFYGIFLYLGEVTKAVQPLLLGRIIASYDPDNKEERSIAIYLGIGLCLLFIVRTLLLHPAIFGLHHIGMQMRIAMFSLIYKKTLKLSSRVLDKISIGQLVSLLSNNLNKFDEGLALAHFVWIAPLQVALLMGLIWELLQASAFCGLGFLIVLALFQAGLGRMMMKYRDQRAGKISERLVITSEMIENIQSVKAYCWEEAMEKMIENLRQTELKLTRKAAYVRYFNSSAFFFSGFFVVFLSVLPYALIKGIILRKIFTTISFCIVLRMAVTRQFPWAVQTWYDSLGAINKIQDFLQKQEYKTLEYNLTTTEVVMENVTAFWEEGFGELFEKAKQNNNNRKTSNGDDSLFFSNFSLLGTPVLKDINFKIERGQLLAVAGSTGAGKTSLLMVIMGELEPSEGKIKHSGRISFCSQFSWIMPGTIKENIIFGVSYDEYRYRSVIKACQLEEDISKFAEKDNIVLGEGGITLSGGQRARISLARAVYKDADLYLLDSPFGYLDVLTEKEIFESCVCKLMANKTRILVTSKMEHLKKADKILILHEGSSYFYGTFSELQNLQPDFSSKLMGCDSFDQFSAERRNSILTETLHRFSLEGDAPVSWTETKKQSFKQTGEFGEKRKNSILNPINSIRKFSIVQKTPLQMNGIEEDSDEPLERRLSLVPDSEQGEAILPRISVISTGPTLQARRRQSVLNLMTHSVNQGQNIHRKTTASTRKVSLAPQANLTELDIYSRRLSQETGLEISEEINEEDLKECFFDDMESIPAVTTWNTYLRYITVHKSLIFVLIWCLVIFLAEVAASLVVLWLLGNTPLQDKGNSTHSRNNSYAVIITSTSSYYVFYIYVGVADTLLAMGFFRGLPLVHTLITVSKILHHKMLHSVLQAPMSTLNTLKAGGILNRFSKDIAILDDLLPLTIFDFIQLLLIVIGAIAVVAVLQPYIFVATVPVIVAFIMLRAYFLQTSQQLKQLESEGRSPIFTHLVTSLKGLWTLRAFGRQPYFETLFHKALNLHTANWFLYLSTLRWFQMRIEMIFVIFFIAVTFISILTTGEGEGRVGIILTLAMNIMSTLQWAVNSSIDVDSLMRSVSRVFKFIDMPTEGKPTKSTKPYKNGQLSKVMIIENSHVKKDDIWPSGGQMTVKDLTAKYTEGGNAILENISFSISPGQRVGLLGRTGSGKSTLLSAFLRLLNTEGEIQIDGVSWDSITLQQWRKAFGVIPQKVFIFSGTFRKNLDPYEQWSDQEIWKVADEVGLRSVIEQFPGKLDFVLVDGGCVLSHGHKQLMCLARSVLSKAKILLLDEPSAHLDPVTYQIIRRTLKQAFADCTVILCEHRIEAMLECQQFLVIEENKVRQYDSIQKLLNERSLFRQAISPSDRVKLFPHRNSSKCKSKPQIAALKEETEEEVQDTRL

Results are given in words; binding and its absence hold for the method and conditions named. Binding seen in cells or lysates may run through a third protein. Some entries that bind do so weakly or less than the wild type.

This test has as its target Flag-Hsp70 (UniProt P0DMV8). Briefly: co-IP; Flag-Hsp70 immunoprecipitated with anti-Flag M2 magnetic beads, 2 h at 4°C, from HEK-Tet-On lysate (PBS, 1% TX-100); CFTR induced for 6 h with 20 μM MG132; without or with co-expressed myc-DJA2; washed with PBS, 0.1% TX-100; eluted with FLAG peptide; immunoblot.

On to CFTR-3HA (from UniProt P13569 1-1480), for which the binding entry was “binds”.
